According to paper PMC11492288:
Results are given in words; binding and its absence hold for the method and conditions named. Binding seen in cells or lysates may run through a third protein. Some entries that bind do so weakly or less than the wild type. For part of these data: Tags and fused reporters may be left off the sequences shown. Blank lines part the entries; values can stand above or below the binder they belong to.

How the values were obtained:
[1] = molecular target: death receptor 5 (human (endogenous in NHEK and Jurkat)), O14763; assay: co-IP; DR5 DISC IP: Dynabeads coated with the agonistic anti-DR5 antibody conatumumab added to 2 x 10^6 cells for 1 h at 37 °C; lysis in DISC buffer (1% Triton X-100, 30 mM Tris-HCl pH 7.5, 150 mM NaCl, 10% glycerol); 5 washes; Western blot; WT and NLRP10 KO NHEKs, Jurkat cells with or without NLRP10 overexpression; details: remark: other sources report otherwise
[2] = molecular target: T1, ΔNp63α-FLAG (UniProt Q9H3D4); assay: co-IP; NLRP10-YFP and ΔNp63α-FLAG co-expressed in 293T cells; IP lysis/wash buffer, 1 mg total lysate; eluted with FLAG peptide; Western blot
T1 sequence: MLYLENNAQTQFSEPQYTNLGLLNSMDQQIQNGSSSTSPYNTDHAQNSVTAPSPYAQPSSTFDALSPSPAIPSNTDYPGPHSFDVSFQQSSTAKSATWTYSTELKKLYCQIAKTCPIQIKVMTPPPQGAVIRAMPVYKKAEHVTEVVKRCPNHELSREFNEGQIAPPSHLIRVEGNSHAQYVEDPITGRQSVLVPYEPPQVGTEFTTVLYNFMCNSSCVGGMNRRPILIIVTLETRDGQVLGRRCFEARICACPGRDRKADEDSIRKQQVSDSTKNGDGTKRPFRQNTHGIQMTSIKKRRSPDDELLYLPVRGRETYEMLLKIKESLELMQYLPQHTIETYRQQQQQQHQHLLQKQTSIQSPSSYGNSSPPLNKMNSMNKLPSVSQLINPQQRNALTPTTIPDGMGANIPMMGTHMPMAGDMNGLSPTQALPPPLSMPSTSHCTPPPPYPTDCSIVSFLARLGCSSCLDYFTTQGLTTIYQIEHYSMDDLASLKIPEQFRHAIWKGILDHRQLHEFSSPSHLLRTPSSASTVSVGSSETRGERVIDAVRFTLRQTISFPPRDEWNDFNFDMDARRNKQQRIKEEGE

[3] = molecular target: caspase-8 (endogenous) (human (endogenous in NHEK and Jurkat)) (UniProt Q14790); assay: co-IP; DR5 DISC IP: Dynabeads coated with the agonistic anti-DR5 antibody conatumumab added to 2 x 10^6 cells for 1 h at 37 °C; lysis in DISC buffer (1% Triton X-100, 30 mM Tris-HCl pH 7.5, 150 mM NaCl, 10% glycerol); 5 washes; Western blot; WT and NLRP10 KO NHEKs, Jurkat cells with or without NLRP10 overexpression

B1: caspase-8 (endogenous), Q14790 1-479 (enzyme)
chain: MDFSRNLYDIGEQLDSEDLASLKFLSLDYIPQRKQEPIKDALMLFQRLQEKRMLEESNLSFLKELLFRINRLDLLITYLNTRKEEMERELQTPGRAQISAYRVMLYQISEEVSRSELRSFKFLLQEEISKCKLDDDMNLLDIFIEMEKRVILGEGKLDILKRVCAQINKSLLKIINDYEEFSKERSSSLEGSPDEFSNGEELCGVMTISDSPREQDSESQTLDKVYQMKSKPRGYCLIINNHNFAKAREKVPKLHSIRDRNGTHLDAGALTTTFEELHFEIKPHDDCTVEQIYEILKIYQLMDHSNMDCFICCILSHGDKGIIYGTDGQEAPIYELTSQFTGLKCPSLAGKPKVFFIQACQGDNYQKGIPVETDSEEQPYLEMDLSSPQTRYIPDEADFLLGMATVNNCVSYRNPAEGTWYIQSLCQSLRERCPRGDDILTILTEVNYEVSNKDDKKNMGKQMPQPTFTLRKKLVFPSD
binding [1]: binds

binding [2]: binds
B2: NLRP10-YFP (protein, UniProt Q86W26 1-655)
chain: MAMAKARKPREALLWALSDLEENDFKKLKFYLRDMTLSEGQPPLARGELEGLIPVDLAELLISKYGEKEAVKVVLKGLKVMNLLELVDQLSHICLHDYREVYREHVRCLEEWQEAGVNGRYNQVLLVAKPSSESPESLACPFPEQELESVTVEALFDSGEKPSLAPSLVVLQGSAGTGKTTLARKMVLDWATGTLYPGRFDYVFYVSCKEVVLLLESKLEQLLFWCCGDNQAPVTEILRQPERLLFILDGFDELQRPFEEKLKKRGLSPKESLLHLLIRRHTLPTCSLLITTRPLALRNLEPLLKQARHVHILGFSEEERARYFSSYFTDEKQADRAFDIVQKNDILYKACQVPGICWVVCSWLQGQMERGKVVLETPRNSTDIFMAYVSTFLPPDDDGGCSELSRHRVLRSLCSLAAEGIQHQRFLFEEAELRKHNLDGPRLAAFLSSNDYQLGLAIKKFYSFRHISFQDFFHAMSYLVKEDQSRLGKESRREVQRLLEVKEQEGNDEMTLTMQFLLDISKKDSFSNLELKFCFRISPCLAQDLKHFKEQMESMKHNRTWDLEFSLYEAKIKNLVKGIQMNNVSFKIKHSNEKKSQSQNLFSVKSSLSHGPKEEQKCPSVHGQKEGKDNIAGTQKEASTGKGRGTEETPKNTYI

binding [3]: binds
B3: NLRP10 overexpressed in Jurkat cells (protein, UniProt Q86W26 1-655)
chain: MAMAKARKPREALLWALSDLEENDFKKLKFYLRDMTLSEGQPPLARGELEGLIPVDLAELLISKYGEKEAVKVVLKGLKVMNLLELVDQLSHICLHDYREVYREHVRCLEEWQEAGVNGRYNQVLLVAKPSSESPESLACPFPEQELESVTVEALFDSGEKPSLAPSLVVLQGSAGTGKTTLARKMVLDWATGTLYPGRFDYVFYVSCKEVVLLLESKLEQLLFWCCGDNQAPVTEILRQPERLLFILDGFDELQRPFEEKLKKRGLSPKESLLHLLIRRHTLPTCSLLITTRPLALRNLEPLLKQARHVHILGFSEEERARYFSSYFTDEKQADRAFDIVQKNDILYKACQVPGICWVVCSWLQGQMERGKVVLETPRNSTDIFMAYVSTFLPPDDDGGCSELSRHRVLRSLCSLAAEGIQHQRFLFEEAELRKHNLDGPRLAAFLSSNDYQLGLAIKKFYSFRHISFQDFFHAMSYLVKEDQSRLGKESRREVQRLLEVKEQEGNDEMTLTMQFLLDISKKDSFSNLELKFCFRISPCLAQDLKHFKEQMESMKHNRTWDLEFSLYEAKIKNLVKGIQMNNVSFKIKHSNEKKSQSQNLFSVKSSLSHGPKEEQKCPSVHGQKEGKDNIAGTQKEASTGKGRGTEETPKNTYI
